# Measured data: PubChem BioAssay AID1259405 (NCATS, 2018)
# Test: 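Silenced genes that increase secreted GFP made by CHO cells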 (primary screen)
# Cell system: Chinese hamster CHO-K1 ovary cells with stable secreted eGFP expression
# Reagent: single siRNA against mouse genes, 0.8 pmol siRNA per well (2 µl of 400 nM stock)
# Time to read-out: 3 days
# Measured: 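Percent of the per-plate non-targeting control median for intracellular GFP per well by laser scanning cytometry and for cell viability by ATP luminescence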
# Direction: GFP, % of control: higher = more GFP per well, higher productivity; viability (ATP), % of control: higher = more viable cells (more ATP)
# Rule for the call: 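Called active when intracellular GFP, relative to negative control, is at or above 120%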
# Shown is one part, drawn at random, of about 50,000 reagents tested. In the full data, about 4,000 (8%) were called active. 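Mouse siRNA library applied to hamster cells; one well for each siRNA.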 A number with no mark means an inactive call. Reagents against one gene are numbered here.
The opening 4 records as a preview:
Target gene,reagent no.,"GFP, % of control","viability (ATP), % of control"
Phtf1 (putative homeodomain transcription factor 1),1,81.8,101
Phtf1 (putative homeodomain transcription factor 1),2,96.4,67.1
Phtf1 (putative homeodomain transcription factor 1),3,75,83.9
Trdmt1 (tRNA aspartic acid methyltransferase 1),1,71.2,89

Main list, from the first entry:
Target gene,reagent no.,"GFP, % of control","viability (ATP), % of control"
Phtf1 (putative homeodomain transcription factor 1),1,81.8,101
Phtf1 (putative homeodomain transcription factor 1),2,96.4,67.1
Phtf1 (putative homeodomain transcription factor 1),3,75,83.9
Trdmt1 (tRNA aspartic acid methyltransferase 1),1,71.2,89
Trdmt1 (tRNA aspartic acid methyltransferase 1),2,109,93.2
Trdmt1 (tRNA aspartic acid methyltransferase 1),3,25.7,36.2
Togaram2 (TOG array regulator of axonemal microtubules 2),1,58.9,92.2
Togaram2 (TOG array regulator of axonemal microtubules 2),2,86.8,66.1
Togaram2 (TOG array regulator of axonemal microtubules 2),3,53.9,118
Timm8a1 (translocase of inner mitochondrial membrane 8A1),1,48.6,64.9
Timm8a1 (translocase of inner mitochondrial membrane 8A1),2,79.2,65
Timm8a1 (translocase of inner mitochondrial membrane 8A1),3,64.6,82.4
Ttc41 (tetratricopeptide repeat domain 41),1,49.3,82.9
Ttc41 (tetratricopeptide repeat domain 41),2,73,120
Ttc41 (tetratricopeptide repeat domain 41),3,90.3,69.7
Mau2,1,59.9,78.6
Mau2,2,108,90.9
Mau2,3,122 (active),104
Sema6c,1,89,71.5
Sema6c,2,68.2,83
Sema6c,3,86.4,115
Caap1 (caspase activity and apoptosis inhibitor 1),1,121 (active),94
Caap1 (caspase activity and apoptosis inhibitor 1),2,86.8,101
Caap1 (caspase activity and apoptosis inhibitor 1),3,107,104
"Eif3b (eukaryotic translation initiation factor 3, subunit B)",1,54.7,42.9
"Eif3b (eukaryotic translation initiation factor 3, subunit B)",2,19.3,13.2
"Eif3b (eukaryotic translation initiation factor 3, subunit B)",3,63.3,123
Rcc2 (regulator of chromosome condensation 2),1,125 (active),98.6
Rcc2 (regulator of chromosome condensation 2),2,72.4,61.4
Rcc2 (regulator of chromosome condensation 2),3,96.7,54.4
Mlh1 (mutL homolog 1),1,96.9,89
Mlh1 (mutL homolog 1),2,97,80.2
Mlh1 (mutL homolog 1),3,71.1,51.6
Alas1 (aminolevulinic acid synthase 1),1,80.5,71.3
Alas1 (aminolevulinic acid synthase 1),2,48.9,74.8
Alas1 (aminolevulinic acid synthase 1),3,79.4,113
"Tnfrsf18 (tumor necrosis factor receptor superfamily, member 18)",1,58.7,45.4
"Tnfrsf18 (tumor necrosis factor receptor superfamily, member 18)",2,71.3,64.9
"Tnfrsf18 (tumor necrosis factor receptor superfamily, member 18)",3,46.7,41.8
Eftud2 (elongation factor Tu GTP binding domain containing 2),1,110,82.4
Eftud2 (elongation factor Tu GTP binding domain containing 2),2,90.2,86.1
"Col18a1 (collagen, type XVIII, alpha 1)",1,90.5,135
"Col18a1 (collagen, type XVIII, alpha 1)",2,88.3,94.4
"Suclg2 (succinate-Coenzyme A ligase, GDP-forming, beta subunit)",1,90.2,57.1
"Suclg2 (succinate-Coenzyme A ligase, GDP-forming, beta subunit)",2,68,79.7
"Suclg2 (succinate-Coenzyme A ligase, GDP-forming, beta subunit)",3,55,46.7
Tdrd6 (tudor domain containing 6),1,60,142
Tdrd6 (tudor domain containing 6),2,76.6,87.2
Tdrd6 (tudor domain containing 6),3,65.6,59.8
Zbtb41 (zinc finger and BTB domain containing 41),1,88.5,129
Zbtb41 (zinc finger and BTB domain containing 41),2,15.2,23.6
Zbtb41 (zinc finger and BTB domain containing 41),3,69.1,92
Slc35e1,1,88.4,83.5
Slc35e1,2,30.3,22.1
Slc35e1,3,73.1,102
Tex9 (testis expressed gene 9),1,81.6,79.1
Tex9 (testis expressed gene 9),2,84.5,78.9
Tex9 (testis expressed gene 9),3,88.1,63.6
Msh5 (mutS homolog 5),1,48.4,69.9
Msh5 (mutS homolog 5),2,61.4,75.8
Msh5 (mutS homolog 5),3,39.8,53.1
Hnrnpd (heterogeneous nuclear ribonucleoprotein D),1,40.7,28
Hnrnpd (heterogeneous nuclear ribonucleoprotein D),2,98.7,82.8
Hnrnpd (heterogeneous nuclear ribonucleoprotein D),3,88.6,36.4
Hmgb3 (high mobility group box 3),1,102,98.4
Hmgb3 (high mobility group box 3),2,72.7,89.4
Hmgb3 (high mobility group box 3),3,89.6,108
Ccdc61 (coiled-coil domain containing 61),1,80.9,89.7
Ccdc61 (coiled-coil domain containing 61),2,87,79.4
Ccdc61 (coiled-coil domain containing 61),3,103,82.8
Tmub1 (transmembrane and ubiquitin-like domain containing 1),1,145 (active),87.3
Tmub1 (transmembrane and ubiquitin-like domain containing 1),2,70.7,31.7
Tmub1 (transmembrane and ubiquitin-like domain containing 1),3,80.5,101
Arxes1 (adipocyte-related X-chromosome expressed sequence 1),1,124 (active),93.1
Arxes1 (adipocyte-related X-chromosome expressed sequence 1),2,87.9,72.9
Arxes1 (adipocyte-related X-chromosome expressed sequence 1),3,78.8,68.9
Map4k2 (mitogen-activated protein kinase kinase kinase kinase 2),1,90.8,90.4
"Mrgpra7 (MAS-related GPR, member A7)",1,59.5,42.5
"Mrgpra7 (MAS-related GPR, member A7)",2,77.6,81.8
"Mrgpra7 (MAS-related GPR, member A7)",3,86.8,84.5
Rnf182 (ring finger protein 182),1,79.6,79.8
Rnf182 (ring finger protein 182),2,97.6,80.4
Rnf182 (ring finger protein 182),3,115,139
Exoc3 (exocyst complex component 3),1,86.1,66
Exoc3 (exocyst complex component 3),2,58,61.7
Exoc3 (exocyst complex component 3),3,77.8,76.5
"H2-M3 (histocompatibility 2, M region locus 3)",1,76.6,70.1
"H2-M3 (histocompatibility 2, M region locus 3)",2,98.5,74.9
"H2-M3 (histocompatibility 2, M region locus 3)",3,47.9,69.6
Ttc16 (tetratricopeptide repeat domain 16),1,47.6,48.1
Ttc16 (tetratricopeptide repeat domain 16),2,88.6,118
Ttc16 (tetratricopeptide repeat domain 16),3,67.7,63.9
Cd200r1 (CD200 receptor 1),1,99.7,86
Cd200r1 (CD200 receptor 1),2,137 (active),65.1
Cd200r1 (CD200 receptor 1),3,94.1,71.4
"Cpt1a (carnitine palmitoyltransferase 1a, liver)",1,111,71.9
"Cpt1a (carnitine palmitoyltransferase 1a, liver)",2,65.8,92.5
"Cpt1a (carnitine palmitoyltransferase 1a, liver)",3,86.8,62.3
Ptbp1 (polypyrimidine tract binding protein 1),1,113,103
Ptbp1 (polypyrimidine tract binding protein 1),2,0.00713,89.3
"Hif1an (hypoxia-inducible factor 1, alpha subunit inhibitor)",1,89.6,118
"Hif1an (hypoxia-inducible factor 1, alpha subunit inhibitor)",2,65.4,70
"Hif1an (hypoxia-inducible factor 1, alpha subunit inhibitor)",3,77.5,79.7
Slc2a3,1,79.4,85.5
Slc2a3,2,98.6,109
Slc2a3,3,88,97.4
Crybg3 (beta-gamma crystallin domain containing 3),1,65.1,45.3
Crybg3 (beta-gamma crystallin domain containing 3),2,78,73.2
Crybg3 (beta-gamma crystallin domain containing 3),3,69.1,97.1
